# From PubChem BioAssay AID493014 (National Center for Advancing Translational Sciences (NCATS), 2011)
# Among all 340,000 compounds or so, about 170 (0.05%) were called active. The inconclusive results got no clear call from the source; some entries with a clear call stand among them for comparison. Calls follow the shape of the dose curve; as a rule, active = well fitted inhibition curve with a large enough effect in the signal ratio, with a control signal flat (not every such curve was filed as active); inconclusive = small, poorly fitted or top-dose-only effect, or effect the other way, or a change in a side signal; inactive = flat fitted curve, though single readings scatter; the % refers to the signal ratio. A potency beside an inconclusive call is a rough fit, not a confirmed value.
# Assay: qHTS Assay to Find Inhibitors of Chronic Active B-Cell Receptor Signaling;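 as to activity change, negative = inhibition: plate controls were basal doxycycline-induced cells for no effect and cells given 10 µM MG132 for full effect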
# Settings: ABC-DLBCL IkBa-CBG/CBR reporter, luminescence ratio (green luciferase fused to IkBa over red control in TMD8 lymphoma cells), 4 h; activity change, negative = inhibition: at 46.1 µM (top of the series)
# How it was run: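 Doxycycline induced both beetle luciferases in TMD8 lymphoma cells; IKK-driven degradation limits the IkappaBalpha-fused green signal, while red luminescence normalises for cell number and nonspecific effects. Compounds tested up to 46 uM, 4 hrs.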
# Potency is read from the fitted curve at half-maximal effect.
SMILES,"activity change, negative = inhibition",Potency
O=C(NCc1ccc2c(c1)OCO2)c1cc(-c2ccccc2)c(N2CCOCC2)s1,inactive: 0.814%,–
O=C(N/N=C/c1c[nH]c2ccccc12)C1CC1(c1ccccc1)c1ccccc1 (stereo not drawn),–,"inconclusive: 29.1 µM [rising, single point]"
CCOP(=O)(c1c(F)c(F)c(F)c(F)c1F)C1(O)CCCCC1 (stereo not drawn),inconclusive: 13%,–
COc1ccc(CCNC(=O)C2CCN(S(=O)(=O)c3cccc4cccnc34)CC2)cc1OC,inactive: 1.16%,–
COc1cccc(N2CCN(C(=O)CCCCCn3c(=O)[nH]c4ccccc4c3=O)CC2)c1,–,"inconclusive: 20 µM [falling, single point]"
CN(C)S(=O)(=O)c1ccc(C(=O)Nc2ccc(F)cc2F)cc1,inconclusive: -4.94%,–
O=C(O)CCCn1cc(NC(=O)COc2ccccc2[N+](=O)[O-])cn1,–,"inconclusive: 7.94 µM [falling, partial curve]"
Cc1ccc(/C=N/NC(=O)c2cc3ccccc3cc2O)o1,inconclusive: -16.4%,–
CC(=O)OCCN(CCCn1c(-c2ccncc2)nc2ccccc21)c1nc(-c2ccc(C)cc2)cs1,–,"inconclusive: 35.5 µM [rising, partial curve, poor fit]"
Cc1cccc(C(=O)N2CC(=O)Nc3ccc(F)cc3C2c2ccc(F)cc2)c1 (stereo not drawn),inconclusive: 4.46%,–
CCCCOC(=O)Nc1sc2c(c1C(=O)OC)CCC2,inconclusive: 7.53%,–
CCOc1ccc(N(CC)C(=O)c2nn(-c3ccc(OC)cc3)c(=O)c3c2c2ccccc2n3C)cc1,inconclusive: 11%,–
COc1ccc(NC(=O)NS(=O)(=O)c2ccc(C)cc2)cc1OC,inconclusive: -0.261%,–
CC1Cc2ccccc2N1S(=O)(=O)c1cccs1 (stereo not drawn),–,"inconclusive: 0.651 µM [rising, full curve, poor fit]"
Cc1cccc(OCCOCCSc2ncccn2)c1,inconclusive: 12.1%,–
Cc1ccc(S(=O)(=O)Nc2ccc(N3CCN(C)CC3)nc2)cc1,inactive: 1.65%,–
Cc1[nH]c2ccccc2c1C(Nc1nccs1)c1ccncc1 (stereo not drawn),inconclusive: -14.7%,–
CCCCOC(=O)c1ccc(-c2ccc(/C=N/NC(=S)NCC)o2)cc1,–,"inconclusive: 2.91 µM [falling, partial curve]"
COc1ccc(C(=O)NCc2ccc3c(c2)CCN3C(=O)c2ccc(C)cc2)cc1,inactive: 8.6%,–
Cc1nc2nc(SCc3ccccc3)[nH]n2c(=O)c1CCC(C)C,–,"inconclusive: 22.4 µM [falling, partial curve]"
CCn1c(S(=O)(=O)O)nc2ccccc21,inconclusive: -1.64%,–
O=C(CSCc1ccc(Cl)cc1)c1ccco1,inconclusive: 1.69%,–
CCCNC(=O)Nc1nc2ccccc2s1,–,"inconclusive: 12.6 µM [falling, partial curve]"
COc1cc2c(cc1OC)C(C)N(C(=O)c1cc3c(C)cc(C)cc3[nH]1)CC2 (stereo not drawn),inconclusive: -16.8%,–
CC(C)c1ccc(NC(=O)CN2C(=O)NC3(CCCC3)C2=O)cc1,inconclusive: 10.9%,–
Cc1cc(C)cc(NS(=O)(=O)Cc2ccccc2)c1,inconclusive: -0.318%,–

SMILES,"activity change, negative = inhibition",Potency
O=C(CSc1nc2ccccc2c(=O)n1-c1ccccc1)NCc1ccco1,inconclusive: -0.402%,–
COc1cc(OC)cc(C(=O)NCC(=O)OCC(=O)NCc2ccco2)c1,inconclusive: 3.38%,–
COc1ccc(CN(Cc2cccn2C)C(=O)c2cc3cc(OC)ccc3[nH]2)cc1,–,"inconclusive: 12.6 µM [falling, partial curve, poor fit]"
Fc1cccc(CSc2nc3ncccc3[nH]2)c1,inconclusive: 9.42%,–
Cc1ccc(C(=O)COC(=O)C2CC(=O)N(c3nc(-c4ccccc4)cs3)C2)cc1 (stereo not drawn),inconclusive: -15.2%,–
COc1ccc(S(=O)(=O)N(CCCN2CCCC2=O)Cc2cc3cc(C)c(C)cc3[nH]c2=O)cc1,inactive: 2.02%,–
O=S(=O)([O-])CCC[n+]1c(/C=C\Nc2ccccc2)oc2ccc(-c3ccccc3)cc21,inactive: 2.01%,–
CCOC(=O)C1(S(=O)(=O)c2ccccc2)CCN(Cc2ccc(Cl)cc2)CC1,inactive: 8.7%,–
C[C@H](CO)N1C[C@H](C)[C@@H](CN(C)C(=O)Nc2ccccc2)Oc2ccc(NC(=O)Nc3ccc4c(c3)OCO4)cc2C1=O,inconclusive: -1.09%,–
Cc1cc(C(=O)NCCc2ccccc2)ccc1[N+](=O)[O-],–,"inconclusive: 16.4 µM [falling, partial curve]"
COc1ccc(C(=O)NCCN2C(=O)S/C(=C\c3cccnc3)C2=O)cc1[N+](=O)[O-],–,"inconclusive: 35.5 µM [falling, single point]"
CNC1(C(N)=O)CCNCC1,inconclusive: 3.74%,–
CCCCNC(=O)CCCCCNS(=O)(=O)c1ccc(OC)cc1,inactive: -0.655%,–
CC(=O)c1ccc(-n2c(C)ccc2-c2ccccc2)cc1,inconclusive: 25.5%,–
c1csc(CSc2nc3ccccc3s2)c1,inconclusive: -0.0704%,–
COc1ccc(/C=C/c2noc(-c3ccccc3O)n2)cc1,–,"inconclusive: 4.61 µM [falling, full curve]"
O=C(OCc1cc2ccccc2[nH]c1=O)C1CCCCC1,inconclusive: 3.5%,–
CC(C)(C)OC(=O)N1CCN(C(=O)c2nc[nH]c2C(=O)N2CCN(c3ccccc3)CC2)CC1,inactive: -1.24%,–
COc1ccccc1NC(=O)CN1CCN(c2ccccc2OC)CC1,inactive: 1.74%,–
NS(=O)(=O)c1ccc(-c2cccc(/C=C3\SC(=O)NC3=O)c2)cc1,inconclusive: 12.1%,–
Cn1c(=O)c2c(ncn2CC(=O)OCC(=O)NCc2ccc(Cl)cc2)n(C)c1=O,–,"inconclusive: 23.1 µM [falling, single point]"
CCCSC1=C(C#N)C(c2ccccc2OCC)CC(=O)N1 (stereo not drawn),inconclusive: 16.3%,–
Cc1c(OC(=O)CNC(=O)OC(C)(C)C)ccc2c3c(c(=O)oc12)CCC3,–,"inconclusive: 7.08 µM [rising, partial curve, poor fit]"
Cc1nn(-c2ncc(C(F)(F)F)cc2Cl)c(=O)n1-c1cccc(Cl)c1,inconclusive: 25.6%,–
N#Cc1c(-c2ccccc2)c(-c2ccccc2)nn(CC(=O)NNC(=O)Nc2ccccc2)c1=O,inconclusive: 7.55%,–
Cc1ccc(-c2ccc(/C=N/O)o2)cc1[N+](=O)[O-],inconclusive: -2.8%,–

# Part of the list above in order of molar mass, low to high.
SMILES,"activity change, negative = inhibition",Potency
Cc1ccc(-c2ccc(/C=N/O)o2)cc1[N+](=O)[O-],inconclusive: -2.8%,–
O=S(=O)([O-])CCC[n+]1c(/C=C\Nc2ccccc2)oc2ccc(-c3ccccc3)cc21,inactive: 2.01%,–
N#Cc1c(-c2ccccc2)c(-c2ccccc2)nn(CC(=O)NNC(=O)Nc2ccccc2)c1=O,inconclusive: 7.55%,–
COc1ccc(S(=O)(=O)N(CCCN2CCCC2=O)Cc2cc3cc(C)c(C)cc3[nH]c2=O)cc1,inactive: 2.02%,–

# Next part.

SMILES,"activity change, negative = inhibition",Potency
CCc1nnc(N/N=C/c2cc(Br)c(O)cc2O)n1N,–,"inconclusive: 22.4 µM [falling, single point]"
CCC(=Nc1ccccc1O)C1=C(O)CC(c2ccccc2)CC1=O (stereo not drawn),–,"inconclusive: 17.8 µM [falling, single point]"
CCN(CC)Cc1c(O)ccc2occ(C(=O)c3ccc(OC)cc3)c12,–,"inconclusive: 29.1 µM [falling, single point]"
Cc1ccc(CSc2nc3ccccc3cc2C=O)cc1,inconclusive: -0.337%,–
Cc1ccccc1OCCn1c(=S)[nH]c2ccccc21,inconclusive: -6.69%,–
CCOc1cc(C(=O)Nc2ccc3c4c(cccc24)C(=O)N3CC)cc(OCC)c1OCC,inconclusive: -26.2%,–
Cc1cccc(C)c1-n1cccc1/C=C1\SC(=S)N(c2cccc(C(=O)O)c2)C1=O,–,"inconclusive: 1.26 µM [rising, full curve, poor fit]"
O=C(Nc1ccc(F)c(Cl)c1)c1cc(S(=O)(=O)N2CCCc3ccccc32)ccc1F,–,"inconclusive: 11.2 µM [rising, partial curve, poor fit]"
COc1ccc(NC(=O)c2cc(-c3cccs3)on2)c(OC)c1,inconclusive: 0.077%,–
COC(=O)c1ccc(C(=O)OC)c(NC(=O)CN2CCCCC2)c1,inconclusive: -0.897%,–
CC(C)CNS(=O)(=O)c1ccc(C(=O)Nc2ccc3c(c2)OCO3)cc1,inconclusive: -1.83%,–
FC(F)Sc1ccc(NC(=S)NC2CCCC2)cc1,–,"inconclusive: 17.8 µM [falling, single point]"
O=C1CCC(C(=O)Nc2cccc(S(=O)(=O)Nc3ccccc3F)c2)=NN1,inactive: 3.44%,–
Cc1ccc(NCCC(=O)c2cccs2)cc1C,inconclusive: -12.5%,–
O=C(Nc1ccc2c(c1)OCO2)C1CCN(C(=O)CSc2ncnc3ccccc23)CC1,–,"inconclusive: 17.8 µM [falling, single point]"
COc1ccc(C(C)=NNc2ccc([N+](=O)[O-])cc2S(=O)(=O)Nc2ccccc2C(=O)O)c(OC)c1,inconclusive: -0.295%,–
COCCNc1nc(=S)[nH]c2cc(OC)c(OC)cc12,inactive: 7.39%,–
CC(/C=N/NC(=O)c1ccccn1)=C\c1ccco1,–,"inconclusive: 35.5 µM [falling, single point]"
N#Cc1ccc(C23CC4(C2)[C@H](CN(CC2CCCCC2)[C@@H]4c2ccccc2)C3c2ccc(Cl)nc2)cc1 (stereo partly drawn),inactive: 5.32%,–
CCOc1ccc(-c2cccc(NS(=O)(=O)c3ccc([N+](=O)[O-])cc3)c2)nn1,inconclusive: 6.59%,–
C/C(=N\NC(=O)C(=O)Nc1ccc(C)c(Cl)c1)c1ccncc1,inactive: -4.14%,–
CCC(=O)N(Cc1cc(=O)[nH]c2ccccc12)c1ccc(C)cc1,–,"inconclusive: 15.8 µM [falling, partial curve, poor fit]"
O=C(Nc1ccc(NC(=O)c2cccs2)cc1)c1ccc2ccccc2c1,inconclusive: 8.76%,–
Cc1ccc(S(=O)(=O)NCC2NCCc3ccccc32)cc1 (stereo not drawn),inconclusive: -0.175%,–
Cn1c(N)c(C(=O)COC(=O)c2ccccc2C(=O)c2ccc(Cl)cc2)c(=O)n(C)c1=O,inconclusive: 0.9%,–
O=c1c2ccccc2sn1-c1ccccc1,–,"inconclusive: 3.66 µM [rising, partial curve, poor fit]"
